Patent EP1133517B1
No constants are given. Whether binding was seen depends on the method and setting. Some entries that bind do so weakly or less than the wild type.

Biological target: T1, endogenous NF-kB p65 subunit of 70Z/3 cells (mouse (endogenous in murine 70Z/3 cells)), Q04207
T1 chain: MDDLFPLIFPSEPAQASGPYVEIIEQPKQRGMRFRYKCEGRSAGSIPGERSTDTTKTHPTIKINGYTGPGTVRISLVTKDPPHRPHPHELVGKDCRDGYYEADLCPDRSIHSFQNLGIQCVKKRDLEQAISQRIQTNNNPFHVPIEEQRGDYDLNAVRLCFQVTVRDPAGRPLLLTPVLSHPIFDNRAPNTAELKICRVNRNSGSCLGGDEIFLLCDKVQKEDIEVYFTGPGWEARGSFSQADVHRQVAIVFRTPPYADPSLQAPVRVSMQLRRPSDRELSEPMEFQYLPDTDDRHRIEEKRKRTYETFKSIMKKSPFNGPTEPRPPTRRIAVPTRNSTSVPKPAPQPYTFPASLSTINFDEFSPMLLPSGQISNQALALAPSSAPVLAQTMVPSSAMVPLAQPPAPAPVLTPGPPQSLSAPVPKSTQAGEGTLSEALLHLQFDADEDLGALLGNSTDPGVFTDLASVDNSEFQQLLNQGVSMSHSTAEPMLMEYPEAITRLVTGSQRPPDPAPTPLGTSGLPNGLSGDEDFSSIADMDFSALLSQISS
Test: EMSA supershift, nuclear extracts of LPS-treated 70Z/3 cells
Conditions: remark: other sources report otherwise

B1: endogenous NF-kB p50 subunit of 70Z/3 cells, P25799 1-431 (protein, mouse (endogenous in murine 70Z/3 cells), UniProt P25799 1-431, looked up)
chain: MADDDPYGTGQMFHLNTALTHSIFNAELYSPEIPLSTDGPYLQILEQPKQRGFRFRYVCEGPSHGGLPGASSEKNKKSYPQVKICNYVGPAKVIVQLVTNGKNIHLHAHSLVGKHCEDGVCTVTAGPKDMVVGFANLGILHVTKKKVFETLEARMTEACIRGYNPGLLVHSDLAYLQAEGGGDRQLTDREKEIIRQAAVQQTKEMDLSVVRLMFTAFLPDSTGSFTRRLEPVVSDAIYDSKAPNASNLKIVRMDRTAGCVTGGEEIYLLCDKVQKDDIQIRFYEEEENGGVWEGFGDFSPTDVHRQFAIVFKTPKYKDVNITKPASVFVQLRRKSDLETSEPKPFLYYPEIKDKEEVQRKRQKLMPNFSDSFGGGSGAGAGGGGMFGSGGGGGSTGSPGPGYGYSNYGFPPYGGITFHPGVTKSNAGVTHG
binding: binds
